The target in this experiment is T1, Full-length wild type N-terminally hexa-histidine tagged S. cerevisiae Kar9 (S. cerevisiae) (UniProt P32526).
T1 sequence: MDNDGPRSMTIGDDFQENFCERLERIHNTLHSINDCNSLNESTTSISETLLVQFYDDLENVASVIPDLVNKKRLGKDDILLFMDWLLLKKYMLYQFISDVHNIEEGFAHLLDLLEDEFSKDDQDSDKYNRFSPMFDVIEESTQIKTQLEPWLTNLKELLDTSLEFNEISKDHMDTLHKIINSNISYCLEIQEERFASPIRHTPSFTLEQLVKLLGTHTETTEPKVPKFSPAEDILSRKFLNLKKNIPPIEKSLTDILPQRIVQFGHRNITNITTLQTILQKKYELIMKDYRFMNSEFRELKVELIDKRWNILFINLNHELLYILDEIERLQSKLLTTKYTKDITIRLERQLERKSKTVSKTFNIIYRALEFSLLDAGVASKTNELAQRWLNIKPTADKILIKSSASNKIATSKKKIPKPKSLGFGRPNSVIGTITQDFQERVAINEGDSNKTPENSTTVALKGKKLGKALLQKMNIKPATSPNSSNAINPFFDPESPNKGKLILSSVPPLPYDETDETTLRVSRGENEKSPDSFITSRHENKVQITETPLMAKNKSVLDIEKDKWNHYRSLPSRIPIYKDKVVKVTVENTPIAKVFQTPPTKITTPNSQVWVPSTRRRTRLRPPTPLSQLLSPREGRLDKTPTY
As to the kind of experiment: co-purification.

These are yes or no findings as the source states them, for the method shown. Some binding calls cover weakened binding; strength is not graded here. Tags and fused reporters may be left off the sequences shown.

B1: Full-length S. cerevisiae Bim1, untagged (protein, UniProt P40013 1-344)
chain: MSAGIGESRTELLTWLNGLLNLNYKKIEECGTGAAYCQIMDSIYGDLPMNRVKFNATAEYEFQTNYKILQSCFSRHGIEKTVYVDKLIRCKFQDNLEFLQWLKKHWIRHKDESVYDPDARRKYRPIITNNSATKPRTVSNPTTAKRSSSTGTGSAMSGGLATRHSSLGINGSRKTSVTQGQLVAIQAELTKSQETIGSLNEEIEQYKGTVSTLEIEREFYFNKLRDIEILVHTTQDLINEGVYKFNDETITGHGNGNGGALLRFVKKVESILYATAEGFEMNDGEDELNDKNLGEHGTVPNQGGYANSNGEVNGNEGSNHDVIMQNDEGEVGVSNNLIIDEETF
With B1, the binding entry is given as “binds”.

(Values after doi:10.1101/2021.09.13.460064.)
